Assay results taken from article PMC4124013.
No constants are given. Whether binding was seen depends on the method and setting. In cells and extracts the contact can be indirect. Binding calls can cover weak binding; strength is not graded here.

By UniProt entry, the sequences of proteins in these tests, tags left out. Where a name states a change or a piece, a line headed by the entry shows the natural chain unless it says otherwise.
UniProt P63331: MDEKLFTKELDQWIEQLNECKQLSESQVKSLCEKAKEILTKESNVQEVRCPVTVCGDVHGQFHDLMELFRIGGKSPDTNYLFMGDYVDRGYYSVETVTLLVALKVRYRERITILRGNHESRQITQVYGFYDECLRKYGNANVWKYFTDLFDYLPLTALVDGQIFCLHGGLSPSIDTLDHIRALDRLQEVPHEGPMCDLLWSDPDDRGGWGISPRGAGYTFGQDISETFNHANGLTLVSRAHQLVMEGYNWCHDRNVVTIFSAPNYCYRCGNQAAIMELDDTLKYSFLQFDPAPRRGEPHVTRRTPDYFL
UniProt Q7TQN4: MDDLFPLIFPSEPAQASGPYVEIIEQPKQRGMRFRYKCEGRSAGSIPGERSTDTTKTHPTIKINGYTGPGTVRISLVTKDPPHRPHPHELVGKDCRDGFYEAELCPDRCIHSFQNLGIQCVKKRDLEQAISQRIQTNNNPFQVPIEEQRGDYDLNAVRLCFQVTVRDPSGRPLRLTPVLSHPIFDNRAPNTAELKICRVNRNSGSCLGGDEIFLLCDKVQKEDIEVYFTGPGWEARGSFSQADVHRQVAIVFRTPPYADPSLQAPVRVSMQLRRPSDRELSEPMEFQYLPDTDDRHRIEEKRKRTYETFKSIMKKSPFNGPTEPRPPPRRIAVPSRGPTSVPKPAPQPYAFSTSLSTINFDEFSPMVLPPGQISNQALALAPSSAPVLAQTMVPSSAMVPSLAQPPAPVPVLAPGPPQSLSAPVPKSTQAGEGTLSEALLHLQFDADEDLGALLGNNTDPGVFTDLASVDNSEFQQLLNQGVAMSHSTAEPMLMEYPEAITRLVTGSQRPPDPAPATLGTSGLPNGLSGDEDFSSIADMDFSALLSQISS

Target: protein phosphatase 2A catalytic subunit (rat (endogenous in primary aortic VSMCs)) (UniProt P63331)
Experiment: co-IP; extracts of rat VSMCs stimulated with LPS (50 μg/ml)/IFN-γ (100 U/ml) for 0-60 min, lysed in IP buffer, pre-cleared with protein A/G-agarose; immunoprecipitated with anti-PP2A-c antibody, blotted with anti-p65 antibody

## NF-κB subunit p65 (from UniProt Q7TQN4 1-550)
  binding: binds
